Structures are written as SMILES. The list is a part of this screen's results and no random one: it is rich in T/C values a quarter to a half above the control, in often repeated tests (any T/C) and in doses without a T/C. Further doses and runs are listed elsewhere. T/C is the treated group as % of the vehicle group. Schedules are NCI's codes, read here as Q, the interval in days (D) or hours (H), X, the number of doses. Some T/C values are followed by the survivors on the day toxicity was checked, most often the fifth; where none is given, no animal had died by that day. Some entries were tested several times; their values stand side by side, smallest first. Marks such as (2×) count equal records among those shown. Some doses have a count of surviving animals in place of a T/C: the source holds a T/C of zero for them, seemingly a mark for toxic or unscored doses. Counts of survivors are from the toxicity check (mostly the fifth day) where no day follows; animals may have died later.

The experiment has as its system BDF1 mice, colon carcinoma 38 sc, T/C %. In words: NCI In Vivo Anticancer Drug Screen. Data for tumor model Colon Carcinoma 38 (subcutaneous) in B6D2F1 (BDF1) mice. Particulars: T/C endpoint: median tumor weight (est.), higher T/C = larger tumour; for T/C: evaluated on day 20. The method, boiled down:
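Mice with transplanted tumors are treated with compound or vehicle. Survival or tumor size is then measured in both groups. The ratio of treated to control gives the reported figure.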

Where [1] appears, read: dose: 10.0 mg/kg/injection, schedule: Q07DX002 (ip), vehicle: saline.
The mark [2] stands for this setting: dose: 20.0 mg/kg/injection, schedule: Q07DX002 (ip), vehicle: saline.
Setting [3] is: dose: 12.5 mg/kg/injection, schedule: Q07DX002 (ip), vehicle: Klucel (hydroxypropylcellulose) (HPC).
Setting [4] is: dose: 25.0 mg/kg/injection, schedule: Q07DX002 (ip), vehicle: Klucel (hydroxypropylcellulose) (HPC).
The mark [5] stands for this setting: dose: 200.0 mg/kg/injection, schedule: Q07DX002 (ip), vehicle: Klucel (hydroxypropylcellulose) (HPC).
[6] abbreviates: dose: 400.0 mg/kg/injection, schedule: Q07DX002 (ip), vehicle: Klucel (hydroxypropylcellulose) (HPC).
Where [7] appears, read: dose: 25.0 mg/kg/injection, schedule: Q07DX002 (ip), vehicle: saline with Tween-80.
Setting [8] is: dose: 50.0 mg/kg/injection, schedule: Q07DX002 (ip), vehicle: saline with Tween-80.
The mark [9] stands for this setting: dose: 400.0 mg/kg/injection, schedule: Q07DX002 (ip), vehicle: saline with Tween-80.

With `N[C@@H](Cc1ccc(N(CCCl)CCCl)cc1)C(=O)O`, the T/C reads like this: (dose: 1.0 mg/kg/injection, schedule: Q07DX002 (ip), vehicle: Klucel (hydroxypropylcellulose) (HPC)) 144 % of control; (dose: 1.0 mg/kg/injection, schedule: Q07DX002 (ip), vehicle: saline) 133 % of control; (dose: 2.5 mg/kg/injection, schedule: Q07DX002 (ip), vehicle: saline) 45, 56 [9 of 10 alive on day 20], 61, 71, 77, 97 (2×), 101, 101 [9 of 10 alive on day 20], 116 % of control; (dose: 2.5 mg/kg/injection, schedule: Q07DX003 (ip), vehicle: saline) 25 [9 of 10 alive], 29, 61, 106 % of control; (dose: 5.0 mg/kg/injection, schedule: Q07DX002 (ip), vehicle: saline) 27, 43, 46, 49, 50, 59 [9 of 10 alive], 83, 89 (2×), 105, 112 % of control; (dose: 5.0 mg/kg/injection, schedule: Q07DX003 (ip), vehicle: saline) 19, 21, 22, 53, 99 % of control. Besides, the T/C is 146 % of control (dose: 8.0 mg/kg/injection, schedule: Q07DX002 (ip), vehicle: Klucel (hydroxypropylcellulose) (HPC)); 4, 7, 17, 25, 28, 33, 53, 87, 98 % of control under setting [1]; 6 [7 of 10 alive], 8, 19, 34 % of control (dose: 10.0 mg/kg/injection, schedule: Q07DX003 (ip), vehicle: saline); 3 [7 of 10 alive on day 20], 59 [9 of 10 alive], 63 % of control [8 of 10 alive on day 20] under setting [2]. Moreover, the survivor count was 5 of 10 on day 20 under setting [1]; 0 of 10 on day 20, 2 of 10 on day 20, 4 of 10, 5 of 10 on day 20 under setting [2]; 0 of 10 on day 20, 2 of 10 on day 20, 6 of 10 on day 20 (dose: 20.0 mg/kg/injection, schedule: Q07DX002 (ip), vehicle: suspension in saline); 1 of 10 and 5 of 10 (dose: 20.0 mg/kg/injection, schedule: Q07DX003 (ip), vehicle: saline); 0 of 10 on day 20 (dose: 30.0 mg/kg/injection, schedule: Q07DX002 (ip), vehicle: Klucel (hydroxypropylcellulose) (HPC)); 0 of 10 on day 20 (dose: 32.0 mg/kg/injection, schedule: Q07DX002 (ip), vehicle: saline). The survivor count is, setting by setting: (dose: 40.0 mg/kg/injection, schedule: Q07DX002 (ip), vehicle: saline) 0 of 10 on day 20, 3 of 10 on day 20, 3 of 9 on day 20; (dose: 40.0 mg/kg/injection, schedule: Q07DX002 (ip), vehicle: suspension in saline) 0 of 10 on day 20.

Take `COC1C(C)OC(OC2CC(C)(O)Cc3cc4c(c(O)c32)C(=O)c2c(O)cc3c(c2C4=O)OC2OC3(C)C(O)C(N(C)C)C2O)C(OC)C1(C)OC` (centres undefined): where the note is “dose: 2.5 mg/kg/injection, schedule: Q07DX002 (ip), vehicle: other”, the T/C was 131 % of control.

In the case of `Cc1ccc(S(=O)(=O)N/N=C/C(Br)=C(/Br)C(=O)O)cc1`, the T/C runs as follows: under setting [3], 127 and 140 % of control; under setting [4], 131 % of control; under setting [5], 126 % of control. Also, under setting [6], the survivor count was 6 of 10 on day 20.

On to `Clc1cc(Cl)c(C[N+]23CN4CN(CN(C4)C2)C3)cc1Cl`, for which the survivor count runs as follows: under setting [7], 4 of 10 on day 20; under setting [8], 5 of 10 on day 20; under setting [9], 0 of 10 on day 20. Moreover, under setting [8], the T/C was 127 % of control.

Consider `CN(C)CCN(C)CC(C)(C)C(=O)/C=C/c1ccccc1`, for which the survivor count reads like this: (dose: 250.0 mg/kg/injection, schedule: Q07DX002 (ip), vehicle: saline) 2 of 10 on day 20; (dose: 500.0 mg/kg/injection, schedule: Q07DX002 (ip), vehicle: saline) 0 of 10 on day 20.

For `O=c1cc[nH]c(=O)o1`, the survivor count (dose: 42.0 mg/kg/injection, schedule: Q01DX009 (ip), vehicle: water) is 5 of 10.

Consider `CCCCCC(O)C1C(=O)OC(C)C(O)/C=C/C=C/C=C/C=C/C=C(\C)C(O)C(O)C(O)CC(O)CC(O)CC(O)CC(O)CC1O` (centres undefined), for which, for the setting “dose: 2.0 mg/kg/injection, schedule: Q07DX002 (ip), vehicle: saline”, the T/C was 125 % of control.

As to `CC(=O)[O][Pb]([O]C(C)=O)([c]1ccccc1)[c]1ccccc1`, the T/C by setting is: under setting [3], 143 % of control; under setting [4], 146 and 148 % of control; under setting [5], 146 % of control.

Take `CC(=S)NC(O)C(=O)c1ccccc1` (centres undefined): the survivor count under setting [9] is reported as 1 of 10 on day 20.

Regarding `S=P(N1CC1)(N1CC1)N1CC1`, under “dose: 24.0 mg/kg/injection, schedule: Q07DX003 (ip), vehicle: saline”, the survivor count is reported as 2 of 6 on day 20.

For the molecule `CCCCCCCCSC1=C(Cl)C(=O)C(OC)=C(OC)C1=O`, the T/C (dose: 6.25 mg/kg/injection, schedule: Q07DX002 (ip), vehicle: saline with Tween-80) is 45 [9 of 10 alive on day 20], 85, 86, 103 % of control; the T/C (dose: 12.5 mg/kg/injection, schedule: Q07DX002 (ip), vehicle: saline with Tween-80) was 66, 70 [7 of 10 alive on day 20], 83, 85 % of control [7 of 10 alive on day 20]; the T/C under setting [7] was 42 [7 of 10 alive on day 20], 65, 92, 108 % of control; the T/C under setting [8] was 100 % of control. Also, under setting [8], the survivor count was 2 of 10 on day 20, 4 of 10 on day 20, 6 of 10 on day 20.

Take `CSc1ncc2ncn(C3OC(CO)C(O)C3O)c2n1` (centres undefined): the T/C was 133 % of control under setting [4] and 130 % of control under setting [6].

On to `CCCCCn1c(C)cc(/C=C\c2ccc3cc(C)ccc3[n+]2C)c1C`, for which the survivor count by setting is: (dose: 1.25 mg/kg/injection, schedule: Q07DX002 (ip), vehicle: Klucel (hydroxypropylcellulose) (HPC)) 6 of 10 on day 20; (dose: 2.5 mg/kg/injection, schedule: Q07DX002 (ip), vehicle: Klucel (hydroxypropylcellulose) (HPC)) 0 of 10 on day 20 and 3 of 10 on day 20; (dose: 5.0 mg/kg/injection, schedule: Q07DX002 (ip), vehicle: Klucel (hydroxypropylcellulose) (HPC)) 0 of 10 on day 20 and 5 of 10 on day 20; (dose: 10.0 mg/kg/injection, schedule: Q07DX002 (ip), vehicle: Klucel (hydroxypropylcellulose) (HPC)) 0 of 10 on day 20; (dose: 20.0 mg/kg/injection, schedule: Q07DX002 (ip), vehicle: Klucel (hydroxypropylcellulose) (HPC)) 0 of 10 on day 20; (dose: 1200.0 micrograms/kg/injection, schedule: Q07DX002 (ip), vehicle: Klucel (hydroxypropylcellulose) (HPC)) 2 of 10 on day 20. For the same molecule, where the note is “dose: 300.0 micrograms/kg/injection, schedule: Q07DX002 (ip), vehicle: Klucel (hydroxypropylcellulose) (HPC)”, the T/C was 138 % of control.

In the case of `O=C1NC(=O)C2C3C=CC(C12)C1C2C(=O)NC(=O)C2C31` (centres undefined), the T/C is 132 and 145 % of control under setting [7]; 126 % of control under setting [8]. Moreover, the survivor count runs as follows: under setting [9], 4 of 10 on day 20; (dose: 800.0 mg/kg/injection, schedule: Q07DX002 (ip), vehicle: saline with Tween-80) 0 of 10 on day 20 and 1 of 10 on day 20.
